Here are results for one substance from article PMC6862723.

No constants are given. Whether binding was seen depends on the method and setting. In cells and extracts the contact can be indirect. A yes stands for co-enrichment or nearness to the bait. Other partners may have been found.

The assay addresses T1, sodium iodide symporter (NIS) (UniProt Q92911).
T1 sequence: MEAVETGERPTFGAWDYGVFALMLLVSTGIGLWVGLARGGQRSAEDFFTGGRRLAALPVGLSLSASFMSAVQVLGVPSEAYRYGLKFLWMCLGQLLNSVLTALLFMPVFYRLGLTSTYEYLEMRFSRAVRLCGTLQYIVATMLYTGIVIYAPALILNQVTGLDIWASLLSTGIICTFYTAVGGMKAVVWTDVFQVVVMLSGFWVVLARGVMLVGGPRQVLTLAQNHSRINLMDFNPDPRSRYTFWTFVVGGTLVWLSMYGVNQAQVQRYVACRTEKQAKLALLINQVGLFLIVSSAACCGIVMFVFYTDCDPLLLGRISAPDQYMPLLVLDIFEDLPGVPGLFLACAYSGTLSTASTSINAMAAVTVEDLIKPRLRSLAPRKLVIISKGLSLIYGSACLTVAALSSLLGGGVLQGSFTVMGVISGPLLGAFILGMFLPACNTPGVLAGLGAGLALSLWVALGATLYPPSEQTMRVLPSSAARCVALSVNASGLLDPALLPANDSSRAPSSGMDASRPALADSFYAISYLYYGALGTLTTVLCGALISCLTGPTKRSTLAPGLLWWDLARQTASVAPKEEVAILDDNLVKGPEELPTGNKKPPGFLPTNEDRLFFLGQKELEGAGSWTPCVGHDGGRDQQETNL
The assay can be described thus: affinity purification with mass spectrometry; only 'mass spectrometry' is printed; bait, cells and conditions not stated.

For the substance VCP (from UniProt P55072 1-806), the binding entry was “binds”.
